{
  "sequences": {"note": "The chains behind the UniProt entries cited, without tags or fusion partners.", "UniProt Q9GZV5": "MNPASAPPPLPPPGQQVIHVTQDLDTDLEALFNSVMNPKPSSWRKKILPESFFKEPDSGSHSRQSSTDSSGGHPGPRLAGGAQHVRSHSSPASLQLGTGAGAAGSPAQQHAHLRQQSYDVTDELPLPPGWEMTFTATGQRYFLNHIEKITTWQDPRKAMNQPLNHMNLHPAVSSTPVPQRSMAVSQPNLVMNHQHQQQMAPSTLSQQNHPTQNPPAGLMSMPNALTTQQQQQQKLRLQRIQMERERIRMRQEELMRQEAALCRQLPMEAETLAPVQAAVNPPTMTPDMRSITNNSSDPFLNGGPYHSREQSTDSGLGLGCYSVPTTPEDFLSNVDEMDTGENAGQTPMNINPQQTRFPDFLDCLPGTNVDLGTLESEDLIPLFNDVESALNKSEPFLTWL", "UniProt Q8NI35": "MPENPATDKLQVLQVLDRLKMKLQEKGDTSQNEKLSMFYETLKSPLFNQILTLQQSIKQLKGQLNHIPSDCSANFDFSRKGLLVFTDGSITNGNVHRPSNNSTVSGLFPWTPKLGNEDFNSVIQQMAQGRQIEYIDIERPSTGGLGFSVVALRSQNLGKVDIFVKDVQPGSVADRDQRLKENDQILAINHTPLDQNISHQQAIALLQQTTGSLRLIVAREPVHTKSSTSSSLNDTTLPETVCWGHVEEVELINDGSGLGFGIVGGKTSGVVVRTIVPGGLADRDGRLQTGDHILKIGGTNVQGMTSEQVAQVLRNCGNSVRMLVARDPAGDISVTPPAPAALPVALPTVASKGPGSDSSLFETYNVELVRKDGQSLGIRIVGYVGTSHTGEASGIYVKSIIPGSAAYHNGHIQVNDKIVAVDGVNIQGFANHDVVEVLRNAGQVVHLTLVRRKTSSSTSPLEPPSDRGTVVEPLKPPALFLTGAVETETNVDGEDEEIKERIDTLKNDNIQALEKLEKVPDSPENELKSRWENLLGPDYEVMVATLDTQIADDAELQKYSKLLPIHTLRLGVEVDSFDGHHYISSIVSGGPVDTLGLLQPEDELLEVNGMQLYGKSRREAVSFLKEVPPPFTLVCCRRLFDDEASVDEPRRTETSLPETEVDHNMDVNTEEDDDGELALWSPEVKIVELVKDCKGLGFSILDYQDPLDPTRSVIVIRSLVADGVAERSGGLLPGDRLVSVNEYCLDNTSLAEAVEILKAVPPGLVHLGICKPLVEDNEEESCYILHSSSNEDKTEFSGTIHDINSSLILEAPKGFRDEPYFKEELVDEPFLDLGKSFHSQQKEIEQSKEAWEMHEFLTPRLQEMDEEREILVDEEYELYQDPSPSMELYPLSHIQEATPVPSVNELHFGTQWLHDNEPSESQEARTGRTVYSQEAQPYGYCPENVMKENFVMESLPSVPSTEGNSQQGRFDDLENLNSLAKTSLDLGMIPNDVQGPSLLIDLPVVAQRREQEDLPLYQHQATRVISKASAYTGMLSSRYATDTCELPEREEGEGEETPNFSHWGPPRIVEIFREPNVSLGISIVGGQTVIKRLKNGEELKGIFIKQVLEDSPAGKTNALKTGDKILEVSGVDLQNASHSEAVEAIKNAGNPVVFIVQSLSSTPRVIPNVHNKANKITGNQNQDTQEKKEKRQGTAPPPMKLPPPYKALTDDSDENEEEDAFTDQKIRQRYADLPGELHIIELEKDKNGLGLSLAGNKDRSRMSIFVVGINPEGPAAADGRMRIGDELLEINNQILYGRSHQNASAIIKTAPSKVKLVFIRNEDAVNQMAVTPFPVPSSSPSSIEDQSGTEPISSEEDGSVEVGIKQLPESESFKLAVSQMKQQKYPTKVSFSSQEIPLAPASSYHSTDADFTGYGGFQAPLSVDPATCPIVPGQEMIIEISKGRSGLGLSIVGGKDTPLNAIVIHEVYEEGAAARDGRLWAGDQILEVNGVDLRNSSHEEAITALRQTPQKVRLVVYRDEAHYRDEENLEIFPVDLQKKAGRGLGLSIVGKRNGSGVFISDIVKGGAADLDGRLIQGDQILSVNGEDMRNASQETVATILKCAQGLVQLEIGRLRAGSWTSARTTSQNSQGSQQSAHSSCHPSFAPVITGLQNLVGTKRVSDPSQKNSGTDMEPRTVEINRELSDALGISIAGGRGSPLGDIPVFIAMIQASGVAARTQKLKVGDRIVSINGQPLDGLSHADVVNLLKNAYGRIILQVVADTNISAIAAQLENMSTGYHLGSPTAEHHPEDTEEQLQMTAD"},
  "source": "paper doi:10.1101/2020.09.07.286633",
  "target": "BirA*-TAZ (full-length) (UniProt Q9GZV5)",
  "assay": "proximity labelling",
  "note": "These are yes or no findings as the source states them, for the method shown. Binding seen in cells or lysates may run through a third protein. These calls come from enrichment with a bait or labelling near it, and not all partners need be listed.",
  "data": [
    {"substance": "PATJ (from UniProt Q8NI35 1-1801)", "values": [
      {"measurement": "binding", "result": "binds"}
    ]}
  ]
}
